# Data from PubChem BioAssay AID1347426 (Functional Genomics Laboratory (NCATS/FGL), 2020).
# The campaign covered roughly 31,000 sequences. About 1,400 (4.5%) were called active.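 Rule for the calls: active = median seed-adjusted z-score above 1 or below -1; inactive = the rest.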 This is one part of the list.
# Test: Novel Modifiers of Survival Motor Neuron (SMN) Protein: Gene Identification via Genome-wide siRNA Screen;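 note: luminescence tracks full-length SMN protein made from the SMN2 reporter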
# Settings: HEK293T SMN2-luciferase reporter, siRNA knockdown, 72 h; actives lie on both sides
# Text: Spinal muscular atrophy (SMA) is the most common neuromuscular autosomal recessive disorder and one of the leading genetic causes of infant death. SMA results from mutations inducing loss of function or deletion in the survival of motor neuron-1 gene (SMN1), leading to deficiency of the survival motor neuron (SMN) protein. Although a second nearly identical gene, SMN2, is retained in humans, its expression primarily produces an aberrantly spliced isoform that is largely unstable and quickly degraded. We performed a genome-wide RNAi screen using a cell-based reporter assay to identify genes and pathways that modulate SMN protein stability. The screen identified over 200 genes that led to the greatest increase or decrease in luciferase expression.
# Using HEK293T cells stably expressing a luciferase reporter that combines the promoter and splicing based cassettes in tandem with the major portion of the native SMN2 cDNA with luciferase, we performed a genome-wide RNAi screen to identify modulators of SMN protein levels. Luciferase is expressed when full-length SMN protein is generated with luminescence signal proportional to SMN protein levels. Our luciferase-based reporter assay was used to screen Ambion Silencer Select Human Druggable Genome siRNA library (10418 genes, 3 unique siRNAs per gene) using lipid-based reverse transfection.
# Briefly, 1 pmol of each siRNA was spotted to a well of a 384-well plate (Corning, Corning, NY) and 20 microL of serum-free DMEM containing […] of Lipofectamine RNAiMax (Life Technologies, Carlsbad, CA) was then added to each well. Transfected cells were maintained at 37 degrees C in 5% CO2 for 72 hours, 20 microL of ONE-Glo Reagent (Promega) was added to wells for luciferase quantification. Raw luminescence reads were normalized to Ambion(R) Silencer(R) Negative Control #2 siRNA, then log10 transformed. A robust statistical measure of median absolute deviation (MAD) to standardize siRNA activities from each screen. Common Seed Analysis was used to help prioritize clean hits as opposed to those appearing to arise from seed based off-target effects. Candidate modulators were defined as the genes having a MAD score greater than 1.0 or less than -1.0.
row,Sequence,median seed-adjusted z-score
1,GGCAGAACUCUUUAUGGAATT against ZNF280C,inactive: 0.336
2,CCUCAUUCUUCAAUAGCAATT against EXTL2,inactive: -0.0568
3,GGACUUAUUGUUGUGCUAATT against ABHD3,inactive: -0.126
4,CAUUUGGUCUAGACAGUUUTT against TDP1,inactive: -0.352
5,GGCUUGCGGUGCUUGUUAATT against IL5RA,inactive: -0.357
6,GGGUGUGCAGGUUCUGUGATT against TRIM40,inactive: 0.108
7,CCAUAGUGACGGUGAAUCATT against SLITRK3,inactive: -0.564
8,GGAACAGCCCGAUCUGCUATT against NT5C1A,inactive: -0.448
9,GGAUAUCUACGAAGGAUAUTT against ACSM3,inactive: 0.281
10,GUACAGGGCUGAAAACAUATT against KIF3C,inactive: 0.0126
11,CCAGCUAGGUGACAUCCAATT against ITGAD,inactive: 0.188
12,GAAUAAUGCUUAUGCUAGATT against CLIC6,inactive: -0.00828
13,AGCAGAUGGUUUUCGAGAATT against COPZ2,active: -1.23
14,CCUCAGAGCUAUUACCCAATT against DNMT3A,inactive: -0.643
15,CUUCCGAAAAGAGAACAAATT against ERC2,inactive: 0.172
16,CAUCAGCGUAUAUUAGAUATT against NCBP1,inactive: 0.785
17,CCAGAGGAGAUUAGACGUATT against SPIRE1,inactive: 0.336
18,GCAUUUAUGGUGCCUGAUUTT against CREB3L4,inactive: 0.229
19,GGGUAUCGGUGAUGAGCUATT against ALAD,inactive: 0.0952
20,AGACACUUCGGGACAAAGATT against MYO1G,inactive: -0.907
21,GUGUGAUGGUUGUAAACGATT against ZMYM6,inactive: -0.355
22,CCAUUUAGCUGUAGACCUUTT against USP51,inactive: -1
23,GUCUACCCAUGGACCCAGATT against HBG1,inactive: -0.716

# In a second layout: results already given
row	Sequence	median seed-adjusted z-score
11	CCAGCUAGGUGACAUCCAATT against ITGAD	inactive: 0.188
12	GAAUAAUGCUUAUGCUAGATT against CLIC6	inactive: -0.00828
13	AGCAGAUGGUUUUCGAGAATT against COPZ2	active: -1.23
14	CCUCAGAGCUAUUACCCAATT against DNMT3A	inactive: -0.643
15	CUUCCGAAAAGAGAACAAATT against ERC2	inactive: 0.172

# Further entries.

row,Sequence,median seed-adjusted z-score
1,CCCUUGCUAUCGCUGCAUATT against MOCS3,inactive: -0.496
2,GACCAAAGAUGAGAAAGUATT against ATP13A1,inactive: 0.488
3,CGAUAGCAAAAGAAGGUUUTT against NRP1,inactive: 0.561
4,GGUGGAGGCGUGUAUAUCATT against RIOK1,inactive: 0.0528
5,CCCUGACUGCAACUGCUUUTT against LDLRAD2,inactive: -0.459
6,GGUUGGUCUCCUCUUCAUATT against PSMD10,inactive: 0.265
7,AUGUCAGUGUUAUACCUAATT against NCBP2,inactive: -0.247
8,CGGCUUUUAUGGACGAGUUTT against STX3,inactive: 0.686
9,GCCCAGACCUUCAUAAGUUTT against APH1B,inactive: -0.135
10,GGAAAGAGAACGAAUCGAATT against PPM1D,inactive: -0.66
11,GGUCCAAAGGGAUCAGGAATT against EMR2,inactive: 0.0569
12,GCAUAGACACCAUCAUCAATT against GCLC,inactive: -0.21
13,GUCAAUAUGUUUACAAGUUTT against GATA5,inactive: 0.15
14,CGAAGACUGUCUGAGACAATT against GPR52,active: -1.17
15,AGACUUUGUUGUUACACUUTT against SYPL1,inactive: -0.457
16,UGCCGGUGCUGGACAGUUUTT against RASSF4,inactive: 0.29
17,CCUCCAUAUGGAUUACUGUTT against GPR139,inactive: 0.0111
18,GAAAAUUGCUCACUUUGAUTT against DAPK2,inactive: 0.268
19,GGCUUUUGAGCAUCCCAAUTT against CDK4,inactive: 0.346
20,GCAACGUGCUUGUCAUGUUTT against OPRD1,inactive: 0.314
21,CCAUAUCGAAUAAUAAUGATT against SCRT1,inactive: -0.483
22,GCUCGAGUGGAAGAACUCATT against GLMN,inactive: 0
23,GCAGGGCAACUCAAAGAAUTT against NR1D1,inactive: -0.301

row,Sequence,median seed-adjusted z-score
1,AGACGAUUGAGUCCAUAAATT against SMARCD3,inactive: 0.247
2,GGUCAAUACACCUAAGAAATT against PRDX1,inactive: 0.288
3,GAUUGUUGUUGAAACAACATT against SPG7,inactive: -0.293
4,GCAUCGUUUCUAUGAACUUTT against KCNB2,active: 1.22
5,GCUCACCUACCAACAGCAATT against CD300LB,inactive: -0.466
6,GCCUCGGAAUACUACAAGATT against GPSM2,inactive: -0.755
7,CGACGGCUCCUACCUCAAUTT against FGFRL1,inactive: -0.111
8,GGAAGAAUGUGGUUUGCGATT against GFOD2,inactive: -0.0447
9,GGAUUCCUAUUUACUCAAATT against MCF2,inactive: 0.51
10,GUAGAGAGGUUGAACGUGUTT against FPR3,inactive: -0.605
11,CGUUCACCCUGAAUUUUGUTT against CLCN7,inactive: -0.28
12,GCUCUAGGCUUAUUAGACATT against ZNF10,inactive: 0
13,GGUUCACUUUGAUAGUACUTT against CLCA4,inactive: 0.186
14,GGACGGUCACAGUGCUAUUTT against PANK2,inactive: 0.121
15,CCCAUUUGCUCUUUACCUATT against NMBR,inactive: 0.32
16,GGGUGUUUCGUUCCCUUUATT against HSPA1B,inactive: 0.302
17,AACUCUCGCUACUACCUGATT against SEMA7A,inactive: 0.0522
18,GGAUCCACAUGGUGAACAATT against CA7,inactive: -0.0754
19,GGACAAGUGAGGUCGAUGATT against MAK,inactive: 0.22
20,GAAGAUUUCUUGAAGCUUUTT against CREB3L4,inactive: 0.229
21,CAACAACACCUGUUCAGCATT against KIF1A,inactive: 0.318
22,CCUUCCAACUUGAACGGAATT against ANGPT2,inactive: -0.163
23,CGUUGAUUGCUGCAAGGCATT against AFG3L2,inactive: 0.117
